Values from PubChem BioAssay AID1259308 (NCATS, 2017).
Purpose: 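Knock-downs that increase output of a recombinant reporter protein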 (primary screen). System: human HEK293 embryonic kidney cells stably expressing firefly luciferase (HEK-CMV-Luc2-Hygro). Reagents: single siRNA against human genes, 0.8 pmol siRNA per well. Timing: 72 h. Measurement: 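Reporter luminescence and viable-cell signal on separate replicate plates, given as percent of non-targeting control and median/MAD z-scores, plus per-cell luciferase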. Reading the numbers: total luciferase, z-score and total luciferase, % of control: higher = more reporter protein produced. Active means: 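An siRNA counts as active if its total luciferase robust z-score exceeds 3; genes with two or more such siRNAs out of three were retested with fresh siRNAs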. Meaning of the calls: active = raised luciferase; inactive = no rise.
In all, the deposit lists about 59,000 reagents; below is an unselected part. About 1,510 of all reagents (2.6%) were called active. 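Calls use total luciferase alone and ignore viability, so some active siRNAs may act by altering cell number.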 Reagents against one gene are numbered here. Not all columns of the deposit are shown.

target gene,reagent,"total luciferase, z-score","total luciferase, % of control",activity call
RPL41,1,-0.239,77.1,inactive
RPL41,2,-1.47,52.7,inactive
RPL41,3,-0.0622,80.7,inactive
SACM1L,1,-0.44,73.1,inactive
SACM1L,2,0.776,97.3,inactive
SACM1L,3,-0.725,67.5,inactive
QSOX2,1,-0.994,62.1,inactive
QSOX2,2,-0.109,79.7,inactive
QSOX2,3,0.286,87.6,inactive
MS4A14,1,-0.416,73.6,inactive
MS4A14,2,1.11,104,inactive
MS4A14,3,-0.356,74.8,inactive
MFSD8,1,-0.313,75.7,inactive
MFSD8,2,-0.373,74.5,inactive
MFSD8,3,1.19,106,inactive
TTYH3,1,0,81.9,inactive
TTYH3,2,1.23,106,inactive
TTYH3,3,0.28,87.5,inactive
NPY,1,0.196,85.8,inactive
NPY,2,0.0391,82.7,inactive
NPY,3,0.158,85,inactive
FBXW12,1,-2.58,30.5,inactive
FBXW12,2,0.689,95.6,inactive
FBXW12,3,1.1,104,inactive
OR51I2,1,0.886,99.5,inactive
OR51I2,2,-0.735,67.3,inactive
OR51I2,3,0.812,98,inactive
DAD1,1,0.195,85.8,inactive
DAD1,2,0.708,96,inactive
DAD1,3,0.221,86.3,inactive
LOC729369,1,-1.39,54.3,inactive
LOC729369,2,-0.404,73.8,inactive
LOC729369,3,-1.05,61.1,inactive
GRPEL2,1,-0.237,77.2,inactive
GRPEL2,2,0.853,98.8,inactive
GRPEL2,3,-1.45,53,inactive
INO80,1,1.68,115,inactive
INO80,2,0.927,100,inactive
INO80,3,1.44,111,inactive
SUV39H1,1,-0.944,63.1,inactive
SUV39H1,2,-0.55,70.9,inactive
SUV39H1,3,2.49,131,inactive
ZNF121,1,1.48,111,inactive
ZNF121,2,-0.0969,80,inactive
ZNF121,3,0.606,93.9,inactive
FGL2,1,-1.1,59.9,inactive
FGL2,2,-0.281,76.3,inactive
FGL2,3,-0.106,79.8,inactive
CLDN3,1,-0.758,66.8,inactive
CLDN3,2,1.48,111,inactive
CLDN3,3,0.535,92.5,inactive
ICMT,1,0.501,91.9,inactive
ICMT,2,0.245,86.8,inactive
ICMT,3,2.25,127,inactive
GMEB2,1,-2.72,27.7,inactive
GMEB2,2,-0.253,76.9,inactive
GMEB2,3,-1.11,59.8,inactive

Records listed so far whose target name starts with C or c (3):
target gene,reagent,"total luciferase, z-score","total luciferase, % of control",activity call
CLDN3,1,-0.758,66.8,inactive
CLDN3,2,1.48,111,inactive
CLDN3,3,0.535,92.5,inactive
